Results are given in words; binding and its absence hold for the method and conditions named. Binding seen in cells or lysates may run through a third protein. Binding calls can cover weak binding; strength is not graded here.
Biological target: Tcf7l2 (endogenous, rat oligodendrocyte lineage cells) (rat (endogenous in primary rat iOLs/mOLs))
Assay: co-IP; endogenous proteins; 600 μg of lysate protein of rat iOLs or mOLs incubated with 3 μg anti-Tcf7l2, anti-Kaiso or anti-Sox10; western blot

binding: binds
B1: Kaiso/Zbtb33 (endogenous, rat iOLs) (protein, UniProt D3ZAN8 1-670)
chain: MESRKLISATDIQYSASLLNSLNEQRGHGLFCDVTVIVEDRKFRAHRNILSASSTYFHQLFSVAGQVVELSFIRAEIFAEILNYIYSSKIVRVRADLLDELIKSGQLLGVKFIAELGVPLSQVKSISGTVQDGTAETLPSSSNDKSPEIEKSKDEAQDNGAPVMPIITESFSLSAEDYEMKKIIVTDSDDDDDDDVIFCSEILPAKEDLPSNNTATQVQPNPASVAISEVTPCTSSNSPPVTNITPPQLPTPVNQSTLSQAQGSEELLVSSASTHLTPNIILLNQAPLTAPPSVSSSLPNHMSSSVNVLVQNQQAPNSAVTGNKAEEEEEILDDDDDIISSSPDSAVSNTSLVPQADASKSTTFDGSLTQKMQAPILPQEPPSNSLKISDVITRNTNDPGLRSKHVMEGQKIITLDTATEIEGLSTGCKVYANIGEDTYDIVIPVKDDPDGGEAKLENELPKTSGSEPSNKRMKVKHDDHYELIVDGRVYYICIVCKRSYVCLTSLRRHFNIHSWEKKYQCRYCDKVFPLAEYRTKHEIHHTGERRYQCLACGKSFINYQFMSSHIKSVHSQDPSGDSKLYRLHPCKSLQIRQYAYLSNKPSAMPVMKDDAVGYKVDAGKEPPVGTTSAPPQNKSTFWEDIFIQQENDSIFKQNVTDGSTEFEFIIPESY

Reference: PMC4786870
